This is an account of results in the supplement of paper PMC12873370.

Where “and” joins values, the source holds several entries; their conditions need not be identical. Identical values can stand only once. This is one part of the list. Single values are uncertain, as repeats are few or missing.

For one assay, the system named is MEPP (mouse ovarian epithelium Trp53/Pten KO). In words: cell viability relative to untreated (fraction); higher = less growth inhibition. The settings on record: 5 µM; 3 days.
Turning to `CCN1CCN(C(=O)Cc2ccc(Nc3ncc(F)c(Nc4ccc(C(=O)Nc5ccccc5Cl)cc4)n3)cc2)CC1`, the cell viability was found to be 0.624.

The molecule `C/C(O)=C(\C#N)C(=O)Nc1cc(Br)ccc1Br` came in with a cell viability of 0.855.

On to `c1ccc([C@@H]2C[C@H]2NC2CCNCC2)cc1`, for which the cell viability is 0.961.

With `Cn1cc(C2=C(c3cn(C4CCN(Cc5ccccn5)CC4)c4ccccc34)C(=O)NC2=O)c2ccccc21`, the cell viability was 0.788.

In turn, `C[C@@H]1C(=O)O[C@H]2[C@H](O)[C@@]34O[C@@H]5OC(=O)[C@H](O)[C@@]56[C@H](C(C)(C)C)[C@H](O)C(OC3=O)[C@]64[C@@]12O` (stereo partly drawn) yielded a cell viability of 1.14.

For the molecule `C[S@+]([O-])CCCCN=C=S`, the cell viability came out at 1.16.

`C[S+]([O-])CCCCN=C=S` (stereo not drawn) registered a cell viability of 0.979.

`Cc1sc2c(c1C)C(c1ccc(Cl)cc1)=N[C@@H](CC(=O)Nc1ccc(O)cc1)c1nnc(C)n1-2` had a cell viability of 0.673.

`CCNC(=O)C[C@@H]1N=C(c2ccc(Cl)cc2)c2cc(OC)ccc2-n2c(C)nnc21` returned a cell viability of 0.878.

The molecule `N[C@@H]1C[C@H]1c1ccccc1` registered a cell viability of 1.06.

For `CC(C)(O)/C=C/C(=O)[C@](C)(O)[C@H]1[C@H](O)C[C@@]2(C)[C@@H]3CC=C4[C@@H](C=C(O)C(=O)C4(C)C)[C@]3(C)C(=O)C[C@]12C`, the cell viability turned out to be 0.943.

Molecule `O=C(O)CNC(=O)C1C(=O)N(C2CCCCC2)C(=O)N(C2CCCCC2)C1=O` gave a cell viability of 0.882.

As for `CC(=O)Oc1ccc(/C=C/c2cc(OC(C)=O)cc(OC(C)=O)c2)cc1`, the cell viability was 0.678.

Molecule `BrC1C(Br)C(Br)C(Br)C(Br)C1Br` (stereo not drawn) had a cell viability of 0.918.

In turn, `Cc1sc2c(c1C)C(c1ccc(Cl)cc1)=N[C@@H](CC(N)=O)c1nnc(C)n1-2` gave a cell viability of 1.01.

For the molecule `CN[C@@H]1C[C@H]2O[C@@](C)([C@@H]1OC)n1c3ccccc3c3c4c(c5c6ccccc6n2c5c31)C(=O)NC4`, the cell viability was determined as 0.141.

`O=C(CBr)c1ccc(O)cc1`: the cell viability was 1.

Consider `CN(C)NC(=O)CCC(=O)O`, for which the cell viability was 1.04.

The molecule `CCCCCCCCCCCCCC(=O)O[C@@H]1[C@@H](C)[C@@]2(O)[C@@H](C=C(CO)C[C@]3(O)C(=O)C(C)=C[C@@H]23)[C@@H]2C(C)(C)[C@]12OC(C)=O` returned a cell viability of 1.03.

The next assay deals with PREPP (mouse prostate epithelium Trp53/Pten KO). The description is as above. As to conditions: 5 µM; 3 days.
Molecule `CCN1CCN(C(=O)Cc2ccc(Nc3ncc(F)c(Nc4ccc(C(=O)Nc5ccccc5Cl)cc4)n3)cc2)CC1` registered a cell viability of 0.7.

`C/C(O)=C(\C#N)C(=O)Nc1cc(Br)ccc1Br` showed a cell viability of 0.996.

`c1ccc([C@@H]2C[C@H]2NC2CCNCC2)cc1` yielded a cell viability of 0.902.

`Cn1cc(C2=C(c3cn(C4CCN(Cc5ccccn5)CC4)c4ccccc34)C(=O)NC2=O)c2ccccc21` displayed a cell viability of 0.719.

For `C[C@@H]1C(=O)O[C@H]2[C@H](O)[C@@]34O[C@@H]5OC(=O)[C@H](O)[C@@]56[C@H](C(C)(C)C)[C@H](O)C(OC3=O)[C@]64[C@@]12O` (stereo partly drawn), the cell viability stood at 0.905.

Take `C[S@+]([O-])CCCCN=C=S`: the cell viability amounted to 0.978.

The molecule `C[S+]([O-])CCCCN=C=S` (stereo not drawn) showed a cell viability of 0.984.

In the case of `COc1ccc2c(c[n+](C)c3c4cc5c(cc4ccc23)OCO5)c1OC`, the cell viability was 0.765 and 0.791.

In turn, `Cc1sc2c(c1C)C(c1ccc(Cl)cc1)=N[C@@H](CC(=O)Nc1ccc(O)cc1)c1nnc(C)n1-2` yielded a cell viability of 0.57.

`CCNC(=O)C[C@@H]1N=C(c2ccc(Cl)cc2)c2cc(OC)ccc2-n2c(C)nnc21` yielded a cell viability of 0.619.

For the molecule `N[C@@H]1C[C@H]1c1ccccc1`, the cell viability stood at 1.03.

Molecule `CC(C)(O)/C=C/C(=O)[C@](C)(O)[C@H]1[C@H](O)C[C@@]2(C)[C@@H]3CC=C4[C@@H](C=C(O)C(=O)C4(C)C)[C@]3(C)C(=O)C[C@]12C` yielded a cell viability of 0.991.

As for `O=C(O)CNC(=O)C1C(=O)N(C2CCCCC2)C(=O)N(C2CCCCC2)C1=O`, the cell viability came to 1.14.

In the case of `CC(=O)Oc1ccc(/C=C/c2cc(OC(C)=O)cc(OC(C)=O)c2)cc1`, the cell viability turned out to be 0.981.

`BrC1C(Br)C(Br)C(Br)C(Br)C1Br` (stereo not drawn) showed a cell viability of 1.09.

On to `Cc1sc2c(c1C)C(c1ccc(Cl)cc1)=N[C@@H](CC(N)=O)c1nnc(C)n1-2`, for which the cell viability was 0.672.

`CN[C@@H]1C[C@H]2O[C@@](C)([C@@H]1OC)n1c3ccccc3c3c4c(c5c6ccccc6n2c5c31)C(=O)NC4` gave a cell viability of 0.277.

Regarding `O=C(CBr)c1ccc(O)cc1`, the cell viability came out at 0.829.

As to `CN(C)NC(=O)CCC(=O)O`, the cell viability came out at 0.911.

The molecule `CCCCCCCCCCCCCC(=O)O[C@@H]1[C@@H](C)[C@@]2(O)[C@@H](C=C(CO)C[C@]3(O)C(=O)C(C)=C[C@@H]23)[C@@H]2C(C)(C)[C@]12OC(C)=O` gave a cell viability of 1.05.

A further assay relates to MEPP (mouse ovarian epithelium Trp53/Pten KO). The assay is described as above. As to conditions: 5 µM; 3 days. This is another data set of the same source.
In turn, `COC[C@]12CN(C)C3[C@@H]4[C@H](OC)[C@H]1[C@@]3([C@@H](OC)C[C@H]2O)[C@@H]1C[C@@]2(O)[C@H](OC(=O)c3ccccc3)[C@@H]1[C@]4(O)[C@@H](O)[C@@H]2OC` returned a cell viability of 0.85.

The molecule `C=CC1CN2CCC1CC2C(O)c1ccnc2ccccc12` (stereo not drawn) returned a cell viability of 0.937.

Molecule `O=C1C=CC(=O)C=C1` yielded a cell viability of 1.04.

Molecule `O=C(O)CCCCCCCCCO` returned a cell viability of 0.86.

As for `C[C@@H]1C(=O)O[C@H]2[C@H](O)[C@@]34O[C@@H]5OC(=O)[C@H](O)[C@@]56[C@H](C(C)(C)C)[C@H](O)C(OC3=O)[C@]64[C@@]12O` (stereo partly drawn), the cell viability was determined as 1.11.

`CNCC(O)c1ccc(O)cc1` (stereo not drawn) showed a cell viability of 0.965.

In turn, `C[S+]([O-])CCCCN=C=S` (stereo not drawn) showed a cell viability of 1.24.

Regarding `N#C/C=C1/C=C[C@@H](O)[C@H](O)[C@H]1O[C@@H]1O[C@H](CO)[C@@H](O)[C@H](O)[C@H]1O`, the cell viability amounted to 1.02.

Turning to `COc1ccc2c(c[n+](C)c3c4cc5c(cc4ccc23)OCO5)c1OC`, the cell viability is 0.374.

`C[C@@]12C(=O)OC(=O)[C@]1(C)[C@H]1CC[C@@H]2O1` displayed a cell viability of 0.713.

In the case of `COc1cc(OC)c(OC)cc1C=O`, the cell viability was determined as 0.948.

For the molecule `C[C@@]1(C(=O)O)CC[C@]2(C)CC[C@]3(C)C4=CC(=O)c5c(cc(O)c(O)c5C=O)[C@]4(C)CC[C@@]3(C)[C@@H]2C1`, the cell viability came out at 0.837.

The molecule `CC[C@@H](C(=O)[C@@H](C)[C@@H](O)[C@H](C)[C@@H]1O[C@@H]([C@@H](CC)C(=O)O)CC[C@@H]1C)[C@H]1O[C@]2(C=C[C@@H](O)[C@]3(CC[C@@](C)([C@H]4CC[C@](O)(CC)[C@H](C)O4)O3)O2)[C@H](C)C[C@@H]1C` showed a cell viability of 0.607.

As to `Oc1ccc(Cl)cc1Cl`, the cell viability is 0.911.

`C[C@@H]1O[C@@H](O[C@H]2C[C@@H](O)[C@]3(CO)[C@H]4[C@H](O)C[C@]5(C)[C@@H](C6=CC(=O)OC6)CC[C@]5(O)[C@@H]4CC[C@]3(O)C2)[C@H](O)[C@H](O)[C@H]1O`: the cell viability was found to be 0.839.

`O=C1C=CC[C@@H]2[C@H]3CCCN4CCC[C@@H](CN12)[C@@H]34`: the cell viability turned out to be 0.867.

The molecule `CC(=O)Oc1ccc(/C=C/c2cc(OC(C)=O)cc(OC(C)=O)c2)cc1` showed a cell viability of 0.899.

Turning to `COc1cc(CCN)ccc1O`, the cell viability came out at 1.23.

In the case of `CN1[C@@H]2CC(O)C[C@H]1[C@@H]1O[C@@H]12` (stereo partly drawn), the cell viability amounted to 1.02.

`CCC1=C[C@H]2CN3CCc4c([nH]c5ccccc45)[C@](C(=O)OC)(C2)[C@H]13` returned a cell viability of 1.47.

Molecule `CN[C@@H]1C[C@H]2O[C@@](C)([C@@H]1OC)n1c3ccccc3c3c4c(c5c6ccccc6n2c5c31)C(=O)NC4` registered a cell viability of 0.374.

Molecule `CN(C)NC(=O)CCC(=O)O` registered a cell viability of 1.06.

Regarding `CCCCCCCCCCCCCC(=O)O[C@@H]1[C@@H](C)[C@@]2(O)[C@@H](C=C(CO)C[C@]3(O)C(=O)C(C)=C[C@@H]23)[C@@H]2C(C)(C)[C@]12OC(C)=O`, the cell viability amounted to 0.814.

Regarding `C=C[C@H]1CN2CC[C@H]1C[C@H]2[C@H](O)c1ccnc2ccccc12`, the cell viability came out at 0.781.
